Results are given in words; binding and its absence hold for the method and conditions named. Binding seen in cells or lysates may run through a third protein. Some results given as binding are weak or reduced against the parent protein; the word gives no strength. Sequences can lack the tags named with a protein.

The chains behind the UniProt entries cited, without tags or fusion partners.
UniProt O95832: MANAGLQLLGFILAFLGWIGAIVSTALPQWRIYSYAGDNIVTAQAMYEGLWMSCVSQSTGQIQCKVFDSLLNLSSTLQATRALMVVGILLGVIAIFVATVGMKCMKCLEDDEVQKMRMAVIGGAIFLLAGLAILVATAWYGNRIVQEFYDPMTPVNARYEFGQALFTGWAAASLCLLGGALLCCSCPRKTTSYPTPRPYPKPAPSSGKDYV

The target of assay [1] is T1, HA-tagged EpCAM (TROP1, CD326) (not stated (human or mouse cDNA cloned)) (UniProt P16422).
T1 sequence: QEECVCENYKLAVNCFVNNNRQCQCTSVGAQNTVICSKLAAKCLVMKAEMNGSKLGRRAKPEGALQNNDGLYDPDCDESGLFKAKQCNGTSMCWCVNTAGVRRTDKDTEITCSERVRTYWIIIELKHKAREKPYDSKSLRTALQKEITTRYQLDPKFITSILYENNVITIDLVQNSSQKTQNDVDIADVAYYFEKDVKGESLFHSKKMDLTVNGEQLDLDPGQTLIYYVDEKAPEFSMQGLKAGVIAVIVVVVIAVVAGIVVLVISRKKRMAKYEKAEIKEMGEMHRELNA
Nature of the assay: co-IP; HEK 293 cells co-transfected with HA-tagged (EpCAM or TROP2) and FLAG-tagged (claudin) plasmids; lysis in 150 mM NaCl/1% Triton X-100/1 mM EDTA/30 mM NaF/2 mM sodium pyrophosphate/20 mM Tris pH 7.5; precipitated with rat anti-HA (3F10) and Protein G Sepharose at 4 °C; immunoblotted with anti-FLAG or anti-HA. A general note: In western blotting, separated proteins are transferred to a membrane and probed.

The target of a further assay is T2, HA-tagged TROP2 (UniProt Q8BGV3).
T2 sequence: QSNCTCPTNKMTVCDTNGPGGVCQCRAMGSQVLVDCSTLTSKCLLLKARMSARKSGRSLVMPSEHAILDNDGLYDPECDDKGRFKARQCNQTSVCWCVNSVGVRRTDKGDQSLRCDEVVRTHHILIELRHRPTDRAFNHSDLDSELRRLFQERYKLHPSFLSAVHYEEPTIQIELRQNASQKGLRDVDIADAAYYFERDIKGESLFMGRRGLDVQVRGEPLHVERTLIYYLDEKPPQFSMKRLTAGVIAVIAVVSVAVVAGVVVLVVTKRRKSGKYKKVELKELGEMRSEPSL
The assay is described as above.

With “FLAG-tagged claudin-1 (from UniProt O95832 1-211)”, the binding entry (in assay [1]; with HA-tagged TROP2) was “binds” each time.

B1: FLAG-tagged claudin-7 (protein, UniProt O95471 1-211)
chain: MANSGLQLLGFSMALLGWVGLVACTAIPQWQMSSYAGDNIITAQAMYKGLWMDCVTQSTGMMSCKMYDSVLALSAALQATRALMVVSLVLGFLAMFVATMGMKCTRCGGDDKVKKARIAMGGGIIFIVAGLAALVACSWYGHQIVTDFYNPLIPTNIKYEFGPAIFIGWAGSALVILGGALLSCSCPGNESKAGYRVPRSYPKSNSSKEYV
Turning to B1, the binding entry (in assay [1]; with HA-tagged TROP2) was “binds” throughout.

These data come from paper PMC7465201.
